According to article PMC9821108, “Biochemical and Structural Analyses Shed Light on the Mechanisms of RadD DNA Binding and Its ATPase from Escherichia coli” (International Journal of Molecular Sciences, 2023):

How the values were obtained:
Experiment in all cases: EMSA
RadD (Escherichia coli) = target: T1, RadD (Escherichia coli) (UniProt P33919); details: no ATP stated, 0-20 uM RadD, 33 nM HJ, 20 mM Bis-Tris pH 6.5, 50 mM NaCl, 15% glycerol, 10 mM beta-mercaptoethanol, 37 C 30 min, 8% native PAGE in 0.5x TBE, text says 'branched DNA', recombinant protein, folded or branched DNA
T1 sequence (looked up, limits assumed): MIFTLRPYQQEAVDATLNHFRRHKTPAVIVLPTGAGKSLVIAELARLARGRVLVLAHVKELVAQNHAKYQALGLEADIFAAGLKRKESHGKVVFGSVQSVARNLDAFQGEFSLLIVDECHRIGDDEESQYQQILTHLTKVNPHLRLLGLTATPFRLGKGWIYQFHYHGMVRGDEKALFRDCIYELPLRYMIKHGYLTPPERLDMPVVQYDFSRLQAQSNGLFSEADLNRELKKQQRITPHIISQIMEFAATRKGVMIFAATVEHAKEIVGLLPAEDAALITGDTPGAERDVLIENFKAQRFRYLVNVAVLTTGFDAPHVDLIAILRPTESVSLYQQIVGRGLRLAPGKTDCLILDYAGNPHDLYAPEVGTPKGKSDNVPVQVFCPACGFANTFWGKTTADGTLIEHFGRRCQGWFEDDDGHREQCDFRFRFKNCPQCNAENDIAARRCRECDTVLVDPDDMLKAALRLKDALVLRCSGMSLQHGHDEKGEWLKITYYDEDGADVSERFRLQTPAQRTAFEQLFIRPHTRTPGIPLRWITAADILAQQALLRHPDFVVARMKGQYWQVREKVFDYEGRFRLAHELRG

[1] = target: T2, RadD RD1-RD2 (Escherichia coli) (UniProt P33919); details: stated as cannot bind branched DNA; 20 mM Bis-Tris pH 6.5, 50 mM NaCl, 15% glycerol, 10 mM beta-mercaptoethanol, 37 C 30 min, 33 nM HJ, 0-20 uM RadD; 8% native PAGE in 0.5x TBE; text says 'branched DNA'; recombinant protein; folded or branched DNA; counted as no binding
T2 sequence (looked up, limits assumed): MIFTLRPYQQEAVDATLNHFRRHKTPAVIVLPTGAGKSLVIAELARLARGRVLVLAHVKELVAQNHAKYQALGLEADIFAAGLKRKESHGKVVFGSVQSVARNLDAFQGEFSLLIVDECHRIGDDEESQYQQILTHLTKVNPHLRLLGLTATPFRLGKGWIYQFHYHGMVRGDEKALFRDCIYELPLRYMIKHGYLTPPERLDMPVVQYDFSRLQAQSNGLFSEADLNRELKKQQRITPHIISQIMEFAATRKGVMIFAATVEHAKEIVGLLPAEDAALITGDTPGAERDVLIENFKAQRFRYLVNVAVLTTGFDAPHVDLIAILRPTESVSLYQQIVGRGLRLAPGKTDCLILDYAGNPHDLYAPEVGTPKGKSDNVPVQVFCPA

[2] = target: T3, RadD ZFD-CTD (Escherichia coli) (UniProt P33919); details: 20 mM Bis-Tris pH 6.5, 50 mM NaCl, 15% glycerol, 10 mM beta-mercaptoethanol, 37 C 30 min, 33 nM HJ, 0-20 uM RadD; 8% native PAGE in 0.5x TBE; text says 'branched DNA'; recombinant protein; folded or branched DNA
T3 sequence (looked up, limits assumed): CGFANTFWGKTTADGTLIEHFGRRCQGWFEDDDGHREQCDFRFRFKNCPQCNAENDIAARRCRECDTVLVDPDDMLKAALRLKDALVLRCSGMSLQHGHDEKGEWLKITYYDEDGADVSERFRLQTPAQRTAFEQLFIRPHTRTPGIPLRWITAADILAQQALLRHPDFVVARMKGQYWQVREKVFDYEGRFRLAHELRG

## CCGCTACCAGTGATCACCAATGGATTGCTAGGACATCTTTGCCCACCTGCAGGTTCACCC / TGGGTGAACCTGCAGGTGGGCAAAGATGTCCTAGCAATCCATTGTCTATGACGTCAAGCTC / GAGCTTGACGTCATAGACAATGGATTGCTAGGACATCTTTGCCGTCTTGTCAATATCGGC / TGCCGATATTGACAAGACGGCAAAGATGTCCTAGCAATCCATTGGTGATCACTGGTAGCGG [Holliday junction (HJ)]
RadD (Escherichia coli)
  binding signal: 100%
[1]
  binding signal: 6 % of WT
[2]
  binding signal: 69 % of WT

The exact form of at least one protein or probe is not confirmed. The direction of at least one scale is not stated here. Tags and fusion partners may be left off the protein sequences shown.
